Experimental data: paper PMC11542591
No constants are given. Whether binding was seen depends on the method and setting. Some binding calls cover weakened binding; strength is not graded here.

Molecular target: T1, STRADα (UniProt Q7RTN6)
T1 sequence: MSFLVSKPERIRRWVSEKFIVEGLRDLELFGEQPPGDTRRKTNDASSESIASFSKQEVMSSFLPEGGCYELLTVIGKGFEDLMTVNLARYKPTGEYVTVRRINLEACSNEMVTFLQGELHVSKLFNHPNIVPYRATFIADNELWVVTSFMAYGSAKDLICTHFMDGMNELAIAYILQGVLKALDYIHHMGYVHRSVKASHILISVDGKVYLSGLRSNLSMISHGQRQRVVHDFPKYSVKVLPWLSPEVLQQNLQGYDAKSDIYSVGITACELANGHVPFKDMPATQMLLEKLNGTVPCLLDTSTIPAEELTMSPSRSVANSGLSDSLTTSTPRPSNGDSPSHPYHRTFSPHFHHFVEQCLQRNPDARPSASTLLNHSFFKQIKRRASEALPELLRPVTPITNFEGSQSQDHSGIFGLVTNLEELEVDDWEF
Test: cryo-EM structure; purified heterotrimer at 3 μM on Quantifoil Au holey-carbon grids; four datasets (Alpine 120 and 200 keV on Glacios, K3 200 keV on Glacios, K3 300 keV on Krios); no nucleotide added; both purified

B1: MO25α (protein, UniProt Q9Y376 1-341)
chain: MPFPFGKSHKSPADIVKNLKESMAVLEKQDISDKKAEKATEEVSKNLVAMKEILYGTNEKEPQTEAVAQLAQELYNSGLLSTLVADLQLIDFEGKKDVAQIFNNILRRQIGTRTPTVEYICTQQNILFMLLKGYESPEIALNCGIMLRECIRHEPLAKIILWSEQFYDFFRYVEMSTFDIASDAFATFKDLLTRHKLLSAEFLEQHYDRFFSEYEKLLHSENYVTKRQSLKLLGELLLDRHNFTIMTKYISKPENLKLMMNLLRDKSRNIQFEAFHVFKVFVANPNKTQPILDILLKNQAKLIEFLSKFQNDRTEDEQFNDEKTYLVKQIRDLKRPAQQEA
In the case of B1, the binding is reported as “binds”.
